According to patent US20250154611A1, “SYSTEMS AND METHODS TO DETECT STEM CELL STRESS AND USES THEREOF” (Wayne State University, priority 2014, published 2025):
For at least one compound, name, drawing or mass did not settle the structure. Some results were stated once for a whole list of compounds, not compound by compound.

Columns and labels:
[1] = tested on: Oct4, Nanog, and Rex1 expression in mESC; experiment: TF expression levels during hyperosmotic stress +/- enzyme inhibition in mESC monolayer culture (western blot); conditions: first 4 hr, 200 mM sorbitol + LY294002
[2] = tested on: Trophoblast stem cells (TSCs); experiment: qPCR of lineage and multipotency markers in TSCs with or without SAPK inhibitors at 20, 2 or 0.5% O2; type: cell-based, mouse
Protocol: FIGS. 1A-1C. SAPK mediates decreased Gcm1 and Tpbpa and increased Hand1 at all O2 levels. There are greater effects as O2 deviates from the stemness optimum of 2% O2. Trophoblast stem cells (TSCs) were passaged and cultured at 20, 2, or 0.5% O2 overnight. FGF4 was replenished the next day at time zero, and SAPK inhibitor SP600125 (10 μm or 50 μM) was co-incubated with TSCs for 2 days at the indicated O2 levels±SP600125. Markers were quantitated using qPCR. (FIG. 1B) is a graph derived from data in (FIG. 1A), where the highest inhibited group was subtracted from the uninhibited group at each O2 level (the subtracted difference is shown as a color inset in the histogram bars of highest expression of each marker). The difference at 2% O2 was set to a baseline of “0” as it was previously shown that 2% O2 was the optimal level that produces the least stress (activated SAPK) and highest proliferation (Zhou (et als., omitted from citations), 32:475, 2011 (Zhou, 2011)). In (FIG. 1C) Cdx2, Id2, and Errβ decreased at 0.5% O2 in the presence of FGF4, but SAPK inhibitor had no effect at any O2 level.
FIG. 2. SAPK mediates suppression of Gcm1 and TPBPa, and induces Hand1 at all O2 levels, but there are greater effects for these lineage choices at 0.5% O2 and 20% O2 and the least effect is seen at 2% O2 where it has been reported that SAPK activity is lowest. TSCs were grown at 20% O2, then passed and switched to 20, 2, or 0.5% O2 overnight. […] RNA was isolated and quantitated using qPCR.
Cell lines and culture conditions. […] Quantitative removal of gas phase O2 requires 30 min in anaerobic bags, i.e., there was only a minimal period when 20% O2 was ambient to media that was pre-equilibrated under 0, 0.5, or 2% O2. […]
RNA isolation and quantitative reverse transcription-PCR (qRT-PCR). […] Briefly, DNase-treated total RNA was isolated following cDNA preparation using QuantiTect Reverse Transcription Kit […] (Qiagen). […]

SMILES	stress-induced loss of Oct4 [1]	increase in later chorionic lineage marker Gcm1 mRNA ([2]; TSCs + FGF4, 2 days, 20, 2, 0.5% O2, highest at 0.5% and 20% O2)	later spongiotrophoblast lineage marker Tpbpa mRNA ([2]; TSCs + FGF4, 2 days, all O2 levels)	early lineage pTGC marker Hand1 mRNA ([2]; TSCs + FGF4, 2 days, highest at 0.5% and 20% O2)
O=c1cc(N2CCOCC2)oc2c(-c3ccccc3)cccc12 [LY294002]	prevented			
Oc1c2ccccc2c2c3c(cccc13)N=N2 [SP600125]		3-7 fold	increased	suppressed
